Measurements: patent US20210087525A1, “COST EFFECTIVE CULTURE MEDIA AND PROTOCOL FOR HUMAN INDUCED PLURIPOTENT STEM CELLS” (NORTHWESTERN UNIVERSITY, priority 2019, published 2021)
Some results were stated once for a whole list of compounds, not compound by compound.

Tested on: hiPSC line 19-3
Assay: short-term 6-day hiPSC growth assay (media variable optimization)
Details: FIG. 2B-C
Text: FIG. 2A-F. Optimization of Basic Human Pluripotent Stem Cell Medium Constituents with a Short-Term Growth Assay. Results are normalized to initial medium component concentrations shown with a dark gray bar, optimizations were completed using short-term 6-day growth assay. […] (A) Comparison of the effect of recombinant human IGF1 LR3 (n=3) and recombinant human insulin (n=18-22) concentrations on relative growth. (B) L-ascorbic acid 2-phosphate (n=19-27). (C) Transferrin (n=2-20). (D) Sodium selenite (n=3-20). (E) FGF2-K128N (n=3-12). (F) TGFb1 (n=20-25). n=full experimental replicates, unpaired Student's T-test, *P≤0.05, **P≤0.01, ***P≤0.005, ****P≤0.0001, n.s.=not significant.
FIG. 3A-H. Optimization of Additional Human Pluripotent Stem Cell Medium Constituents in a Short-Term Assay. E8 medium component concentrations are shown with a dark gray bar, optimizations were completed using a simple 6-day growth assay. […] (A) Comparison of the suitability of recombinant transferrin (10 μg ml−1) to support clonal growth with and without ROCK1/2 inhibition using Y27632 (10 μM) during the first 24 h after passage (n=3). (B) Comparison of two common ROCK1/2 inhibitors only during first 24 h after passage on relative growth (n>5). (C) Comparison of the effect of the addition of non-essential amino acids (NEAA) and chemically defined lipids (n=5) on relative growth. (D) Fatty acid-free albumin (n=4). […]

O=C1O[C@H]([C@@H](O)CO)C(O)=C1OP(=O)(O)O.[Na+].[Na+].[Na+] [Ascorbic acid 2-phosphate, L-ascorbic acid 2-phosphate trisodium salt]
concentration enhancing growth / giving optimal growth: ≥ 200 µg/mL
